{"source": "patent EP2325172A1", "about": "(Laboratorios del. Dr. Esteve, S.A., priority 2009, dated 2011)", "origin": "cited, not measured here", "data": [{"compound": "Cc1ccc(-c2cc(C(F)(F)F)nn2-c2ccc(S(N)(=O)=O)cc2)cc1", "note": "[celecoxib, 4-[5-(4-methylphenyl)-3-(trifluoromethyl)pyrazol-1-yl]benzenesulfonamide]", "values": [{"measurement": "water solubility", "value": 7, "unit": "µg/mL"}]}]}
